In paper PMC8558867, “Development of BromoTag: A “Bump-and-Hole”–PROTAC System to Induce Potent, Rapid, and Selective Degradation of Tagged Target Proteins” (Journal of Medicinal Chemistry, 2021):

System: MV-4-11 cells
Experiment: CellTiter-Glo 2.0 cell viability assay, MV-4-11
Assay type: cell-based
Conditions: Homo sapiens, MV4-11; MV-4-11, 24 Hours, mean ±S.E.M, N = 2; read-out: pEC50 (cell viability) (converted)

SMILES: CN[C@@H]1C[C@H]2O[C@@](C)([C@@H]1OC)n1c3ccccc3c3c4c(c5c6ccccc6n2c5c31)C(=O)NC4 [Staurosporine]
- EC50: 6.31 nM
